In patent publication US5643870A, “O-acylated cyclosporins” (Sandoz Ltd., priority 1992, dated 1997):
At least one peptide structure holds a part that was inferred or is arguable (an end, a ring closure or a residue).

Tested on: allergen-induced pulmonary eosinophilia
Assay: Influence on allergen-induced pulmonary eosinophilia (ovalbumin-sensitised guinea pigs, BAL cell counts)
Format: in vivo
Details: guinea pig

## CC[C@@H]1NC(=O)[C@H]([C@H](O)[C@H](C)C/C=C/COC(=O)OC)N(C)C(=O)[C@H](C(C)C)N(C)C(=O)[C@H](CC(C)C)N(C)C(=O)[C@H](CC(C)C)N(C)C(=O)[C@@H](C)NC(=O)[C@H](C)NC(=O)[C@H](CC(C)C)N(C)C(=O)[C@H](C(C)C)NC(=O)[C@H](CC(C)C)N(C)C(=O)CN(C)C1=O [Example 1, [(8'-Methoxycarbonyloxy)MeBmt]^1 -Ciclosporin]
Inhalation 15 mins. prior to OA challenge
  ID50, test 2 by inhalation (eosinophil accumulation in BAL): ca. 4 mg/kg
p.o. 100 mg/kg/day in oil 3×
  inhibition of eosinophil accumulation, test 2 orally: no inhibition
p.o. 320 mg/kg in methylcellulose 1×
  inhibition of eosinophil accumulation, test 2 orally: no inhibition
